These are yes or no findings as the source states them, for the method shown. Binding seen in cells or lysates may run through a third protein. These calls come from enrichment with a bait or labelling near it, and not all partners need be listed. For some of these results: No binding means not detected with the bait.

By UniProt entry, the sequences of proteins in these tests, tags left out.
UniProt Q6P3S6: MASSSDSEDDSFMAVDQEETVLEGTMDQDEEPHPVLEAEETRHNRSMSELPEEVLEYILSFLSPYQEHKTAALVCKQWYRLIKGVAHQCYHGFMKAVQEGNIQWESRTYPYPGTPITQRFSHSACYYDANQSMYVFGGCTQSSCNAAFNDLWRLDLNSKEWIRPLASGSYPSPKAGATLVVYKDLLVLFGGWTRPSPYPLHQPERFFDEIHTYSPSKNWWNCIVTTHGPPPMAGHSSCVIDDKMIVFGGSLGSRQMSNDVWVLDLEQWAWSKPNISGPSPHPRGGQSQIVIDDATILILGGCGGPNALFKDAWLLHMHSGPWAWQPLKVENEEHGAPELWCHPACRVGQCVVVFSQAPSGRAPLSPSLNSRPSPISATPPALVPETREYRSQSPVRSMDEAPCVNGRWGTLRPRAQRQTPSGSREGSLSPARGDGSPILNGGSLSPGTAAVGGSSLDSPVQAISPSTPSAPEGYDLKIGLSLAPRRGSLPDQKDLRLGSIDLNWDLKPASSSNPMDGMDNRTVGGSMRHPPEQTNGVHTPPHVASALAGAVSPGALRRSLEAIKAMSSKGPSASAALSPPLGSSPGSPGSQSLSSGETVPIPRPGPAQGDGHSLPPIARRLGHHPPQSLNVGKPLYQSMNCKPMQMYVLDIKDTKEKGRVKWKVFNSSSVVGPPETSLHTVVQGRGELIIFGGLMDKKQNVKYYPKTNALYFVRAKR

For test [1], the target named is FBXO42 (endogenous, HAP1 cells) (human (endogenous in HAP1)) (UniProt Q6P3S6). Put plainly: affinity purification with mass spectrometry; IP of endogenous FBXO42 with anti-FBXO42 antibody from HAP1 lysates, WT compared with FBXO42-/- cells; cells treated with 10 uM MG132 for the last 4 h; lysis buffer 100 mM Tris pH 8, 150 mM NaCl, 0.1% NP-40.
For test [2], the target named is T1, CCDC6 (endogenous, RPE1 cells) (human (endogenous in RPE1)) (UniProt Q16204).
T1 sequence: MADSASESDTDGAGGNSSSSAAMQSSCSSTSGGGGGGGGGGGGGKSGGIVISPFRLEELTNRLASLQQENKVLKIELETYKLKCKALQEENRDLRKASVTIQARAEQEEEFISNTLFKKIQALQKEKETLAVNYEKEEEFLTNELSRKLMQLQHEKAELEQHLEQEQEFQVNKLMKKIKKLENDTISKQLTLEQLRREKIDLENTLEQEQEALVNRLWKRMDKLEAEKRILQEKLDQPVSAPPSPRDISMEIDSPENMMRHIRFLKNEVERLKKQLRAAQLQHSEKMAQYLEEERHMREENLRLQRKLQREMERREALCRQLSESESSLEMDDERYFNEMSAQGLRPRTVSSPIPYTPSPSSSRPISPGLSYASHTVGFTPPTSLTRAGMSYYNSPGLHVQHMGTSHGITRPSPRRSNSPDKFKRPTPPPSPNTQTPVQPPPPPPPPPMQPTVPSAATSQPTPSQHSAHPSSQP
Put plainly: affinity purification with mass spectrometry; IP with an anti-CCDC6 antibody from RPE1 lysates, proteins at endogenous levels; WT compared with CCDC6-/-, FBXO42-/- and PPP4C knock-down (shRNA) cells.

Test [3] addresses T2, CCDC6 (endogenous, RPE1 cells) (human (endogenous in RPE1)), Q16204.
T2 chain: T1 sequence
Described as above. The following applies: remark: other sources report otherwise.

B1: PPP4R2 (endogenous, HAP1 cells) (protein, UniProt Q9NY27 1-417)
chain: MDVERLQEALKDFEKRGKKEVCPVLDQFLCHVAKTGETMIQWSQFKGYFIFKLEKVMDDFRTSAPEPRGPPNPNVEYIPFDEMKERILKIVTGFNGIPFTIQRLCELLTDPRRNYTGTDKFLRGVEKNVMVVSCVYPSSEKNNSNSLNRMNGVMFPGNSPSYTERSNINGPGTPRPLNRPKVSLSAPMTTNGLPESTDSKEANLQQNEEKNHSDSSTSESEVSSVSPLKNKHPDEDAVEAEGHEVKRLRFDKEGEVRETASQTTSSEISSVMVGETEASSSSQDKDKDSRCTRQHCTEEDEEEDEEEEEESFMTSREMIPERKNQEKESDDALTVNEETSEENNQMEESDVSQAEKDLLHSEGSENEGPVSSSSSDCRETEELVGSNSSKTGEILSESSMENDDEATEVTDEPMEQD
Consider B1, for which, in test [1], the binding entry is “binds”.

B2: PPP4R2 (endogenous, RPE1 cells) (protein, UniProt Q9NY27 1-417)
chain: B1 chain
Turning to B2, in test [2], the binding entry was “no binding”.

B3: PPP4R3A (endogenous, RPE1 cells), Q6IN85 1-833 (protein)
chain: MTDTRRRVKVYTLNEDRQWDDRGTGHVSSGYVERLKGMSLLVRAESDGSLLLESKINPNTAYQKQQDTLIVWSEAENYDLALSFQEKAGCDEIWEKICQVQGKDPSVDITQDLVDESEEERFDDMSSPGLELPSCELSRLEEIAELVASSLPSPLRREKLALALENEGYIKKLLELFHVCEDLENIEGLHHLYEIIKGIFLLNRTALFEVMFSEECIMDVIGCLEYDPALSQPRKHREFLTKTAKFKEVIPISDPELKQKIHQTYRVQYIQDMVLPTPSVFEENMLSTLHSFIFFNKVEIVGMLQEDEKFLTDLFAQLTDEATDEEKRQELVNFLKEFCAFSQTLQPQNRDAFFKTLSNMGILPALEVILGMDDTQVRSAATDIFSYLVEYNPSMVREFVMQEAQQNDDVSKKLTEQKITSKDILLINLIIEHMICDTDPELGGAVQLMGLLRTLVDPENMLATANKTEKTEFLGFFYKHCMHVLTAPLLANTTEDKPSKDDFQTAQLLALVLELLTFCVEHHTYHIKNYIINKDILRRVLVLMASKHAFLALCALRFKRKIIGLKDEFYNRYIMKSFLFEPVVKAFLNNGSRYNLMNSAIIEMFEFIRVEDIKSLTAHVIENYWKALEDVDYVQTFKGLKLRFEQQRERQDNPKLDSMRSILRNHRYRRDARTLEDEEEMWFNTDEDDMEDGEAVVSPSDKTKNDDDIMDPISKFMERKKLKESEEKEVLLKTNLSGRQSPSFKLSLSSGTKTNLTSQSSTTNLPGSPGSPGSPGSPGSPGSVPKNTSQTAAITTKGGLVGLVDYPDDDEDDDEDEDKEDTLPLSKKAKFDS
With B3, in test [3], the binding entry is “no binding”.

B4: PPP4C (endogenous, RPE1 cells) (protein, UniProt P60510 1-307)
chain: MAEISDLDRQIEQLRRCELIKESEVKALCAKAREILVEESNVQRVDSPVTVCGDIHGQFYDLKELFRVGGDVPETNYLFMGDFVDRGFYSVETFLLLLALKVRYPDRITLIRGNHESRQITQVYGFYDECLRKYGSVTVWRYCTEIFDYLSLSAIIDGKIFCVHGGLSPSIQTLDQIRTIDRKQEVPHDGPMCDLLWSDPEDTTGWGVSPRGAGYLFGSDVVAQFNAANDIDMICRAHQLVMEGYKWHFNETVLTVWSAPNYCYRCGNVAAILELDEHLQKDFIIFEAAPQETRGIPSKKPVADYFL
Take B4: the binding result in test [2] is given as “binds”.

B5: PPP4C, protein phosphatase 4 catalytic subunit (endogenous, HAP1 cells) (protein, UniProt P60510 1-307)
chain: B4 chain
As for B5, the binding result in test [1] is given as “binds”.

B6: PPP4R1 (endogenous, RPE1 cells) (protein, UniProt Q8TF05 1-950)
chain: MADLSLLQEDLQEDADGFGVDDYSSESDVIIIPSALDFVSQDEMLTPLGRLDKYAASENIFNRQMVARSLLDTLREVCDDERDCIAVLERISRLADDSEPTVRAELMEQVPHIALFCQENRPSIPYAFSKFLLPIVVRYLADQNNQVRKTSQAALLALLEQELIERFDVETKVCPVLIELTAPDSNDDVKTEAVAIMCKMAPMVGKDITERLILPRFCEMCCDCRMFHVRKVCAANFGDICSVVGQQATEEMLLPRFFQLCSDNVWGVRKACAECFMAVSCATCQEIRRTKLSALFINLISDPSRWVRQAAFQSLGPFISTFANPSSSGQYFKEESKSSEEMSVENKNRTRDQEAPEDVQVRPEDTPSDLSVSNSSVILENTMEDHAAEASGKPLGEISVPLDSSLLCTLSSESHQEAASNENDKKPGNYKSMLRPEVGTTSQDSALLDQELYNSFHFWRTPLPEIDLDIELEQNSGGKPSPEGPEEESEGPVPSSPNITMATRKELEEMIENLEPHIDDPDVKAQVEVLSAALRASSLDAHEETISIEKRSDLQDELDINELPNCKINQEDSVPLISDAVENMDSTLHYIHSDSDLSNNSSFSPDEERRTKVQDVVPQALLDQYLSMTDPSRAQTVDTEIAKHCAYSLPGVALTLGRQNWHCLRETYETLASDMQWKVRRTLAFSIHELAVILGDQLTAADLVPIFNGFLKDLDEVRIGVLKHLHDFLKLLHIDKRREYLYQLQEFLVTDNSRNWRFRAELAEQLILLLELYSPRDVYDYLRPIALNLCADKVSSVRWISYKLVSEMVKKLHAATPPTFGVDLINELVENFGRCPKWSGRQAFVFVCQTVIEDDCLPMDQFAVHLMPHLLTLANDRVPNVRVLLAKTLRQTLLEKDYFLASASCHQEAVEQTIMALQMDRDSDVKYFASIHPASTKISEDAMSTASSTY
Turning to B6, the binding entry in test [2] is “binds”.

B7: PPP4R1 (endogenous, HAP1 cells) (protein, UniProt Q8TF05 1-950)
chain: B6 chain
Consider B7, for which, in test [1], the binding result was “binds”.
